Experimental data from PubChem BioAssay AID624297 (National Center for Advancing Translational Sciences (NCATS), 2012).
Out of some 340,000 compounds screened, about 6,200 (1.8%) were called active. Inconclusive means that the source gave no clear call. Such entries were picked first, then a sample of the others. Calls follow the shape of the dose curve; as a rule, active = well fitted activation curve with a large enough effect; inconclusive = small, poorly fitted or top-dose-only effect; inactive = no such curve, though single readings can be large or run the other way. Potencies beside an inconclusive call are fits to weak or partial responses and may not hold up.
Potency is read from the fitted curve at half-maximal effect.

Assay: A quantitative high throughput screen for small molecules that induce DNA re-replication in SW480 colon adenocarcinoma cells. Also: nearly all actives have a fitted effect of over 55% in size. As to re-replication activation: % of control where 0% means no effect.
Conditions: Hoechst DNA content imaging, 48 h; re-replication activation: at 46.1 µM (top of the series) unless noted
Method in brief: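 DNA re-replication was detected as more nuclei of elevated Hoechst intensity after 48 hr exposure to compound (23 nL pinned per well of 250 cells).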
For `O=C(NS(=O)(=O)c1ccccc1Cl)c1ccc[nH]1`, the re-replication activation was inconclusive: 710% [activator]. For `CN(C)c1ccc(C2Nc3ccccc3C(=O)N2NS(C)(=O)=O)cc1` (centres undefined), the “re-replication activation” value was inactive: 1.55%. With `Cn1c(SCC(=O)OC2CCCCC2)nnc1-c1ccco1` the Potency was inconclusive: 1.16 µM [activator, single point]. For `Cc1ccc2nc(N3C(=O)C(O)=C(C(=O)c4ccc(C)o4)C3c3ccco3)sc2c1` (centres undefined), the “re-replication activation” value was inactive: 9.74%. For `Cc1ccc(S(=O)(=O)CCC(=O)Nc2nnc(CC(C)C)s2)cc1`, the Potency was inconclusive: 18.4 µM [activator, single point]. With `CCn1cc(C(=O)NCCN(C)CCc2ccccc2)c(=O)c2cc(S(=O)(=O)N(C)C)ccc21` the Potency was inconclusive: 29.1 µM [activator, single point]. In the case of `CCN(CC)CCOC(=O)c1ccc(N/C=C(/C#N)c2nc(-c3ccc4c(c3)OCO4)cs2)cc1`, the Potency is reported as inconclusive: 29.1 µM [activator, single point]. In the case of `O=C(NCCN1CCOCC1)c1ccccc1OCc1ccccc1`, the Potency is reported as inconclusive: 18.4 µM [activator, single point]. For `O=C(CCNc1ccc(Cc2ccncc2)cc1)c1cccc([N+](=O)[O-])c1`, the “re-replication activation” value was inactive: -0.56%. With `COc1ccc(OCc2cccc(C(=O)Nc3ccc(CN4CCCCC4)cc3)c2)cc1` the Potency was inconclusive: 29.1 µM [activator, single point]. For `CC(C(=O)N1CCCC1)N1CCN(S(=O)(=O)c2ccc(C(C)(C)C)cc2)CC1` (centres undefined), the “re-replication activation” value was inactive: -9.73%. With `CCCn1nnc(NC(=O)/C=C/c2ccccc2)n1` the “re-replication activation” value was inactive: -11.5%. With `Cc1ccc(S(=O)CCNC(=O)Cc2ccc(Cl)cc2)cc1` (centres undefined) the “re-replication activation” value was inactive: 1.68%. For `CN(C)C(=O)COc1ccc(C(=O)/C=C/c2cccnc2)cc1`, the Potency was inconclusive: 29.1 µM [activator, single point]. With `CC(C)(C)c1ccc(C(=O)C2CCCN(C(=O)c3ccccn3)C2)cc1` (centres undefined) the Potency was inconclusive: 29.1 µM [activator, single point]. In the case of `CC(C)OC(=O)CN1C(=O)C(=O)c2ccccc21`, the Potency is reported as inconclusive: 16.4 µM [activator, single point]. In the case of `O=[N+]([O-])c1ccc(NC(c2ccccc2)c2ccc3cccnc3c2O)cc1` (centres undefined), the Potency is reported as active: 0.82 µM. For `COc1ccc(S(=O)(=O)N2CCN(C)CC2c2ccccc2)cc1OC` (centres undefined), the “re-replication activation” value was inactive: -32.5%. In the case of `Cc1ccc(SCCNC(=O)c2ccc(C)c([N+](=O)[O-])c2)cc1`, the “re-replication activation” value is reported as inactive: -45.1%. In the case of `COc1ccc(NS(=O)(=O)c2ccc3[nH]c(=O)[nH]c3c2)cc1`, the re-replication activation is reported as inconclusive: -37.4% [activator]. For `COc1cc(CNCCN2CCOCC2)ccc1OCc1c(Cl)cccc1Cl`, the Potency was inconclusive: 29.1 µM [activator, single point]. For `CC(C)N(Cc1nnc(-c2ccccc2Br)o1)C(=O)c1cc(Cl)nc2ccccc12`, the Potency was inconclusive: 1.3 µM [activator, full curve, poor fit]. In the case of `CCNC(=O)N(CC)C[C@H]1N[C@@](Cc2ccccc2)(C(=O)OC)[C@H]2C(=O)N(C)C(=O)[C@@H]12`, the Potency is reported as inconclusive: 16.4 µM [activator, single point]. With `Cc1ccc(NC(=S)N2CCC(c3ccccc3)C2)c(Cl)c1` (centres undefined) the “re-replication activation” value was inactive: 4.4%. For `O=C(O)CCC(=O)c1ccc2c(c1)OCCO2`, the “re-replication activation” value was inactive: 1.68%. With `CCCCn1c(SCC(=O)NC2CC2)nc2ccccc2c1=O` the “re-replication activation” value was inactive: -9.66%. For `CC(=O)Nc1cccc(NC(=O)Nc2ccc(C(C)=O)cc2)c1`, the “re-replication activation” value was inactive: -5.06%. In the case of `NNC(=O)c1ccc([N+](=O)[O-])c(CS(=O)(=O)c2ccc(Cl)cc2)c1`, the “re-replication activation” value is reported as inactive: 6.36%. For `Nc1ccccc1Sc1nc2ccccc2[nH]1`, the Potency was inconclusive: 29.1 µM [activator, single point]. In the case of `O=C(CN1c2ccccc2Sc2ccccc21)NNC(=O)Nc1ccc(Cl)c(Cl)c1`, the Potency is reported as inconclusive: 29.1 µM [activator, single point]. With `CCOC(=O)CN1C(=O)S/C(=C/c2ccc(C)o2)C1=O` the “re-replication activation” value was inactive: -1.16%. In the case of `CC(C)(C)c1ccc(-c2csc(NC(=O)CN3C(=O)NC4(CCCCC4)C3=O)n2)cc1`, the Potency is reported as inconclusive: 29.1 µM [activator, single point]. In the case of `COc1ccc(OCC(=O)NC2CCCCCCC2)cc1`, the Potency is reported as inconclusive: 4.61 µM [activator, single point]. In the case of `Cc1cc(C)c2c(N)c(C(=O)Nc3ncc(C)s3)sc2n1`, the Potency is reported as inconclusive: 5.17 µM [activator, single point]. With `CN(C)CCNc1oc(-c2ccccc2Cl)nc1S(=O)(=O)c1ccccc1` the Potency was inconclusive: 14.6 µM [activator, single point]. In the case of `CCOC(=O)C(C(C)=O)c1c(Br)c(O)c(O)c2c(C(=O)c3ccc(C)cc3)coc12` (centres undefined), the Potency is reported as inconclusive: 6.51 µM [activator, single point]. For `COc1ccc2[nH]c(S(=O)Cc3ncc(C)c(OC)c3C)nc2n1` (centres undefined), the “re-replication activation” value was inactive: -2.29%. For `O=C(Nc1nnc(-c2cccnc2)o1)c1cccc(Cl)c1`, the “re-replication activation” value was inactive: 27.1%. With `CCc1noc(C)c1C(=O)N(CC)c1nc2c(C)cccc2s1` the Potency was inconclusive: 5.8 µM [activator, partial curve, poor fit]. For `CCOC(=O)c1cnc2c(cnn2C)c1NCCC(O)C(F)(F)F` (centres undefined), the “re-replication activation” value was inactive: -20.2%. For `CCC1=C[C@@H]2CN(C1)Cc1c([nH]c3ccccc13)[C@@](C(=O)OC)(c1cc3c(cc1OC)N(C)[C@@H]1[C@@](O)(C(=O)OC)[C@H](OC(C)=O)[C@]4(CC)C=CCN5CC[C@]31[C@@H]54)C2`, the Potency was active: 1.19 µM. In the case of `O=C(OC1CCCCC1)c1cc2ccccc2oc1=O`, the Potency is reported as inconclusive: 6.31 µM [activator, single point]. For `CCC(C)[C@H]1CNC(=S)N1CCC12CC3CC(CC(C3)C1)C2` (some centres undefined), the “re-replication activation” value was inactive: -8.57%. With `CCCCn1c(N)c(N(CCC(C)C)C(=O)COC(=O)Cc2ccc(Cl)cc2)c(=O)[nH]c1=O` the “re-replication activation” value was inactive: 8.07%. With `O=C(/C=C/c1ccccc1)CC(=O)c1ccccc1O` the Potency was inconclusive: 3.66 µM [activator, partial curve, poor fit]. In the case of `O=C(Nc1ccc(-c2nc3ccccc3o2)cc1)c1ccc2c(c1)OCO2`, the Potency is reported as inconclusive: 18.4 µM [activator, single point]. With `CC(=O)Oc1ccc(C2(C)CC(C)(C)NC(=S)N2C)c(OC(C)=O)c1` (centres undefined) the “re-replication activation” value was inactive: 19%. For `CC(C)[C@H](NC(N)=O)C(=O)Nc1cccc(S(=O)(=O)N2CCOCC2)c1`, the “re-replication activation” value was inactive: 2.68%. In the case of `CN(Cc1ccccc1)S(=O)(=O)c1ccc2c(c1)CCC(=O)N2`, the “re-replication activation” value is reported as inactive: -3.81%. For `C/C(CCN1CCCCc2nc(C)c(C)cc21)=N\O[C@@H](C)CN1CCCCc2nc(C)c(C)cc21`, the Potency was inconclusive: 29.1 µM [activator, single point]. In the case of `COc1ccc(C(=O)CCC(=O)N2CCN(c3ccc([N+](=O)[O-])cc3)CC2)cc1`, the “re-replication activation” value is reported as inactive: -32.4%. With `Cc1ccccc1NC(=O)Cc1nc(COC(=O)COc2cccc(C)c2C)cs1` the Potency was inconclusive: 14.6 µM [activator, single point]. With `COc1cccc(C(=O)NCCSCc2c(F)cccc2Cl)c1` the “re-replication activation” value was inactive: 1.42%. In the case of `Cc1nn(C2CCS(=O)(=O)C2)c(C)c1CN(C)C(=O)c1cccc(Cl)c1` (centres undefined), the “re-replication activation” value is reported as inactive: -16.6%. In the case of `COc1cc(/C=C/C(=O)c2ccc(F)cc2)cc(OC)c1OC`, the Potency is reported as active: 18.4 µM. For `Cc1nc2nc(-c3ccccc3)cn2nc1C`, the Potency was inconclusive: 18.4 µM [activator, single point]. With `CCN1C(=O)C(=Cc2cccc(OC)c2Oc2ccc([N+](=O)[O-])cc2[N+](=O)[O-])SC1=S` the Potency was active: 4.61 µM. For `O=C(/C=C/c1ccc(Cl)cc1Cl)N1CCN(c2ccc([N+](=O)[O-])c(N3CCOCC3)c2)CC1`, the “re-replication activation” value was inactive: -1.12%. In the case of `COc1cccc(/C=N/Nc2cc(-n3nc(C)cc3-c3ccccc3)ncn2)c1O`, the Potency is reported as inconclusive: 3.66 µM [activator, full curve, poor fit]. With `CC(C)(C)OC(=O)N1CCC(C(=O)NCC2CCCO2)CC1` (centres undefined) the re-replication activation was inactive: 5.02% [at 9.22 µM]. For `Cc1nn(-c2ccccc2)c(C)c1-c1nnc(-c2c(C)nn(-c3ccccc3)c2C)o1`, the “re-replication activation” value was inactive: -13.2%. For `O=C(Nc1ccc(-c2nnc3n2CCCCC3)cc1)c1cc2ccccc2o1`, the “re-replication activation” value was inactive: 1.88%. With `CCc1noc(C)c1C(=O)Nc1cc(S(=O)(=O)N2CCCCC2)ccc1N(C)C` the “re-replication activation” value was inactive: -4.66%. In the case of `COc1cc(/C=C2\SC(=O)NC2=O)ccc1OCc1ccc(Cl)nc1`, the Potency is reported as inconclusive: 18.4 µM [activator, single point]. With `COc1cccc(/C=N/NC(=O)CNC(=O)COc2cccc(C)c2)c1O` the Potency was inconclusive: 5.8 µM [activator, full curve]. In the case of `Cc1cc2oc(=O)cc(-c3cc4ccccc4o3)c2cc1O`, the “re-replication activation” value is reported as inactive: -0.83%. For `COc1ccc(OC)c(CC(=O)Nc2ccc3c(c2)CCC3)c1`, the “re-replication activation” value was inactive: -10.2%. With `Cc1nn2c(NCc3ccccn3)cc(C(C)(C)C)nc2c1-c1ccccc1` the Potency was active: 2.91 µM. In the case of `Cc1cc(NC(=O)CSc2nc(C(C)C)nc3sc(C)c(C)c23)no1`, the Potency is reported as inconclusive: 16.4 µM [activator, single point]. With `COc1ccc(C(C)NC(=O)Cc2cccs2)cc1` (centres undefined) the Potency was inconclusive: 29.1 µM [activator, single point]. For `O=C(NNC(=S)NC1CCCCC1)c1cccc(S(=O)(=O)Nc2ccccc2Cl)c1`, the Potency was inconclusive: 3.26 µM [activator, partial curve, poor fit]. For `CCOC(=O)c1c(Nc2ccc(Cl)cc2)sc(/C=C2\C=Nc3ccccc32)c1O`, the Potency was inconclusive: 13 µM [activator, partial curve, poor fit]. With `COc1ccc(S(=O)(=O)N(C)C[C@H]2Oc3c(NC(=O)C4CCCCC4)cccc3C(=O)N([C@H](C)CO)C[C@@H]2C)cc1` the “re-replication activation” value was inactive: -7.35%. In the case of `OCCC1CN(Cc2cnc(-c3ccccc3)s2)CCN1C1CCCC1` (centres undefined), the Potency is reported as inconclusive: 0.116 µM [activator, full curve, poor fit].
